Source: ChEMBL document CHEMBL5674883, “The Heterochromatin Landscape in Migrating Cells and the Importance of H3K27me3 for Associated Transcriptome Alterations” (Cells, 2018)
Further values from the same series stand in other lists.

Sequences of proteins named here, by UniProt entry; tags and fusion partners are left off.
UniProt Q61188, whole entry: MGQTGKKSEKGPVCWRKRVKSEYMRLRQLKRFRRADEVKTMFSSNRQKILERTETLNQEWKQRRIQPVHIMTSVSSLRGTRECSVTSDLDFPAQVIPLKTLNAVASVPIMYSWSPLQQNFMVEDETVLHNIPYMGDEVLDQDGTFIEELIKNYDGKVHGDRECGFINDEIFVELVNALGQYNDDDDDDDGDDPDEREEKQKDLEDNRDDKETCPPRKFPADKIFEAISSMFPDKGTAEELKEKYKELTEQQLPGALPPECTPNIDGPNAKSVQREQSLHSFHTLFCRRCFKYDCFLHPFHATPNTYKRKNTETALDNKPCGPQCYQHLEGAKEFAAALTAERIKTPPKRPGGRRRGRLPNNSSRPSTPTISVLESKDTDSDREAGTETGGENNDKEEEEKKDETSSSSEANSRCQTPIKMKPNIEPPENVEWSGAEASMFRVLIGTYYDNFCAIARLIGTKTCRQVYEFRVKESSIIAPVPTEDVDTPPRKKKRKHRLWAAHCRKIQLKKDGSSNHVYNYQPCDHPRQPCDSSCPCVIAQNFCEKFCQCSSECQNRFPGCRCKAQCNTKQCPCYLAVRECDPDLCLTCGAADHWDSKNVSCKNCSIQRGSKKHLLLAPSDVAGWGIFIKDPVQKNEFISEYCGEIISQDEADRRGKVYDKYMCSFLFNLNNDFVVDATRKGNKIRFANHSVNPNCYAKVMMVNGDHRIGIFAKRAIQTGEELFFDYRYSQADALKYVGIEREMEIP

Legend:
Assay type in all cases: cell-based
[1] = target: Histone-lysine N-methyltransferase EZH2 (Mus musculus) (UniProt Q61188); assay: Inhibition of EZH2 in mouse B16-F1 migrating cells assessed as fold change in H3K27me3-buffered regulated Malt1-mRNA expression at 3 uM measured by ChIP-seq analysis relative to control cells
[2] = target: Histone-lysine N-methyltransferase EZH2 (Mus musculus) (UniProt Q61188); assay: Inhibition of EZH2 in mouse B16-F1 migrating cells assessed as fold change in H3K27me3-independent regulated Emp1-mRNA expression at 3 uM measured by ChIP-seq analysis relative to control cells
[3] = target: Histone-lysine N-methyltransferase EZH2 (Mus musculus) (UniProt Q61188); assay: Inhibition of EZH2 in mouse B16-F1 migrating cells assessed as fold change in H3K27me3-buffered regulated Glcci1-mRNA expression at 3 uM measured by ChIP-seq analysis relative to control cells
[4] = target: Histone-lysine N-methyltransferase EZH2 (Mus musculus) (UniProt Q61188); assay: Inhibition of EZH2 in mouse B16-F1 migrating cells assessed as fold change in H3K27me3-dependent regulated Dusp8-mRNA expression at 3 uM measured by ChIP-seq analysis relative to control cells
[5] = target: Histone-lysine N-methyltransferase EZH2 (Mus musculus) (UniProt Q61188); assay: Inhibition of EZH2 in mouse B16-F1 migrating cells assessed as fold change in H3K27me3-buffered regulated Ppm1k-mRNA expression at 3 uM measured by ChIP-seq analysis relative to control cells
[6] = target: Histone-lysine N-methyltransferase EZH2 (Mus musculus) (UniProt Q61188); assay: Inhibition of EZH2 in mouse B16-F1 migrating cells assessed as fold change in H3K27me3-dependent regulated Gm15446-mRNA expression at 3 uM measured by ChIP-seq analysis relative to control cells
[7] = target: Histone-lysine N-methyltransferase EZH2 (Mus musculus) (UniProt Q61188); assay: Inhibition of EZH2 in mouse B16-F1 migrating cells assessed as fold change in H3K27me3-buffered regulated C330027C09Rik-mRNA expression at 3 uM measured by ChIP-seq analysis relative to control cells
[8] = target: Histone-lysine N-methyltransferase EZH2 (Mus musculus) (UniProt Q61188); assay: Inhibition of EZH2 in mouse B16-F1 migrating cells assessed as fold change in H3K27me3-buffered regulated Usp2-mRNA expression at 3 uM measured by ChIP-seq analysis relative to control cells
[9] = target: Histone-lysine N-methyltransferase EZH2 (Mus musculus) (UniProt Q61188); assay: Inhibition of EZH2 in mouse B16-F1 migrating cells assessed as fold change in H3K27me3-buffered regulated Ube2cbp-mRNA expression at 3 uM measured by ChIP-seq analysis relative to control cells
[10] = target: Histone-lysine N-methyltransferase EZH2 (Mus musculus) (UniProt Q61188); assay: Inhibition of EZH2 in mouse B16-F1 migrating cells assessed as fold change in H3K27me3-independent regulated Clybl-mRNA expression at 3 uM measured by ChIP-seq analysis relative to control cells
[11] = target: T1, RNA polymerase II (Mus musculus) (UniProt P08775+Q8CFI7+P97760+A0A3Q4L2S8+Q80UW8+P61219+P62488+Q923G2+P60898+O08740+Q63871+P62876); assay: Inhibition of RNA polymerase II in mouse B16-F1 migrating cells assessed as fold change in Rbm15-RNA stability at 0.1 mM measured by ChIP-seq analysis relative to control cells
[12] = target: T1, RNA polymerase II (Mus musculus); assay: Inhibition of RNA polymerase II in mouse B16-F1 migrating cells assessed as fold change in Hsp90aa1-RNA stability at 0.1 mM measured by ChIP-seq analysis relative to control cells
[13] = target: T1, RNA polymerase II (Mus musculus); assay: Inhibition of RNA polymerase II in mouse B16-F1 migrating cells assessed as fold change in Nr3c1-RNA stability at 0.1 mM measured by ChIP-seq analysis relative to control cells
[14] = target: T1, RNA polymerase II (Mus musculus); assay: Inhibition of RNA polymerase II in mouse B16-F1 migrating cells assessed as fold change in Ldha-RNA stability at 0.1 mM measured by ChIP-seq analysis relative to control cells
[15] = target: T1, RNA polymerase II (Mus musculus); assay: Inhibition of RNA polymerase II in mouse B16-F1 migrating cells assessed as fold change in Ap2s1-RNA stability at 0.1 mM measured by ChIP-seq analysis relative to control cells
[16] = target: T1, RNA polymerase II (Mus musculus); assay: Inhibition of RNA polymerase II in mouse B16-F1 migrating cells assessed as fold change in Snf8-RNA stability at 0.1 mM measured by ChIP-seq analysis relative to control cells
[17] = target: T1, RNA polymerase II (Mus musculus); assay: Inhibition of RNA polymerase II in mouse B16-F1 migrating cells assessed as fold change in Rpl36-RNA stability at 0.1 mM measured by ChIP-seq analysis relative to control cells
[18] = target: T1, RNA polymerase II (Mus musculus); assay: Inhibition of RNA polymerase II in mouse B16-F1 migrating cells assessed as fold change in Shoc2-RNA stability at 0.1 mM measured by ChIP-seq analysis relative to control cells
[19] = target: T1, RNA polymerase II (Mus musculus); assay: Inhibition of RNA polymerase II in mouse B16-F1 migrating cells assessed as fold change in Ckap2-RNA stability at 0.1 mM measured by ChIP-seq analysis relative to control cells
[20] = target: T1, RNA polymerase II (Mus musculus); assay: Inhibition of RNA polymerase II in mouse B16-F1 migrating cells assessed as fold change in Rpph1-RNA stability at 0.1 mM measured by ChIP-seq analysis relative to control cells
[21] = target: T1, RNA polymerase II (Mus musculus); assay: Inhibition of RNA polymerase II in mouse B16-F1 migrating cells assessed as fold change in Dnm1-RNA stability at 0.1 mM measured by ChIP-seq analysis relative to control cells
[22] = target: T1, RNA polymerase II (Mus musculus); assay: Inhibition of RNA polymerase II in mouse B16-F1 migrating cells assessed as fold change in Mbd3-RNA stability at 0.1 mM measured by ChIP-seq analysis relative to control cells
[23] = target: T1, RNA polymerase II (Mus musculus); assay: Inhibition of RNA polymerase II in mouse B16-F1 migrating cells assessed as fold change in Usp16-RNA stability at 0.1 mM measured by ChIP-seq analysis relative to control cells
[24] = target: T1, RNA polymerase II (Mus musculus); assay: Inhibition of RNA polymerase II in mouse B16-F1 migrating cells assessed as fold change in Dpy19l1-RNA stability at 0.1 mM measured by ChIP-seq analysis relative to control cells
[25] = target: T1, RNA polymerase II (Mus musculus); assay: Inhibition of RNA polymerase II in mouse B16-F1 migrating cells assessed as fold change in Fam204a-RNA stability at 0.1 mM measured by ChIP-seq analysis relative to control cells
[26] = target: T1, RNA polymerase II (Mus musculus); assay: Inhibition of RNA polymerase II in mouse B16-F1 migrating cells assessed as fold change in Anp32e-RNA stability at 0.1 mM measured by ChIP-seq analysis relative to control cells
[27] = target: T1, RNA polymerase II (Mus musculus); assay: Inhibition of RNA polymerase II in mouse B16-F1 migrating cells assessed as fold change in Znhit1-RNA stability at 0.1 mM measured by ChIP-seq analysis relative to control cells
[28] = target: T1, RNA polymerase II (Mus musculus); assay: Inhibition of RNA polymerase II in mouse B16-F1 migrating cells assessed as fold change in Slc27a4-RNA stability at 0.1 mM measured by ChIP-seq analysis relative to control cells
[29] = target: T1, RNA polymerase II (Mus musculus); assay: Inhibition of RNA polymerase II in mouse B16-F1 migrating cells assessed as fold change in Lrrc17-RNA stability at 0.1 mM measured by ChIP-seq analysis relative to control cells
[30] = target: T1, RNA polymerase II (Mus musculus); assay: Inhibition of RNA polymerase II in mouse B16-F1 migrating cells assessed as fold change in Apba3-RNA stability at 0.1 mM measured by ChIP-seq analysis relative to control cells

CCCc1cc(C)[nH]c(=O)c1CNC(=O)c1cc(-c2ccnc(N3CCN(C)CC3)c2)cc2c1cnn2C(C)C
log2FC [1]: -0.52 | log2FC [2]: 0.69 | log2FC [3]: -0.79 | log2FC [4]: 0.26 | log2FC [5]: -0.76 | log2FC [6]: -0.37 | log2FC [7]: -0.43 | log2FC [8]: 0.71 | log2FC [9]: -0.61 | log2FC [10]: 0.58

OC[C@H]1O[C@@H](n2cnc3cc(Cl)c(Cl)cc32)[C@H](O)[C@@H]1O
log2FC [11]: -0.56 | log2FC [12]: -0.64 | log2FC [13]: -0.65 | log2FC [14]: 0.64 | log2FC [15]: 0.54 | log2FC [16]: 0.42 | log2FC [17]: 0.55 | log2FC [18]: -0.7 | log2FC [19]: -0.63 | log2FC [20]: 1.58 | log2FC [21]: 0.7 | log2FC [22]: 0.53 | log2FC [23]: -0.54 | log2FC [24]: -0.38 | log2FC [25]: -1 | log2FC [26]: -0.46 | log2FC [27]: 0.51 | log2FC [28]: 0.54 | log2FC [29]: 1.76 | log2FC [30]: 0.47
